The other results are listed elsewhere or left out.
Each target was assayed with C1=CC=C(C=C1)[C@H](COC2=CC3=C(C=C2)NC(=O)N3)NC(=O)C4=CC=CN(C4=O)CC5=CC(=C(C=C5)F)F (assay: log2 fold change, soluble protein after heating vs DMSO (PISA); higher = thermal stabilisation; K562 cells, 10 uM, 30 min; active = over 0.2 and 3.5 SD of the protein, either way, in both replicates (recomputed)).
How it was run: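 K562 cells (2×10^6 cells/mL) were treated with 10 μM compound for 30 min, and aliquots were heated for 3 min over 48°C-58°C. Pooled aliquots were extracted in PBS with 0.5% NP-40 at 4°C, and the supernatant after 21,000xg for 90 min was measured by TMTpro 16plex LC-MS/MS with channel sums equalised. Reported thermal stability, relative to control samples and from duplicates, is a log2 fold change.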

Protein sequences, listed by entry. Tags and fused reporters are not part of them. Lines headed by an entry give the natural chain unless they say otherwise; changes in a name come on top.
UniProt Q86WR0: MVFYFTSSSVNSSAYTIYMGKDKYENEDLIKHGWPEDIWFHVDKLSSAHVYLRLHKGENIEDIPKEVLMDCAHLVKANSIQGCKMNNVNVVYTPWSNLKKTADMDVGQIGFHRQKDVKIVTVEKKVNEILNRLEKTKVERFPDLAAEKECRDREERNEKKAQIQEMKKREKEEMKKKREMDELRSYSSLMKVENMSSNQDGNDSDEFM
UniProt Q9BV29: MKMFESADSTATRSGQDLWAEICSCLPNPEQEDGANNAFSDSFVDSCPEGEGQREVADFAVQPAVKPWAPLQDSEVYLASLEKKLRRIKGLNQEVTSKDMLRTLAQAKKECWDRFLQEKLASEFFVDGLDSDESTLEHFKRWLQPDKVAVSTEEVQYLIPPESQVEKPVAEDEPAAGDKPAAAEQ
UniProt Q99832: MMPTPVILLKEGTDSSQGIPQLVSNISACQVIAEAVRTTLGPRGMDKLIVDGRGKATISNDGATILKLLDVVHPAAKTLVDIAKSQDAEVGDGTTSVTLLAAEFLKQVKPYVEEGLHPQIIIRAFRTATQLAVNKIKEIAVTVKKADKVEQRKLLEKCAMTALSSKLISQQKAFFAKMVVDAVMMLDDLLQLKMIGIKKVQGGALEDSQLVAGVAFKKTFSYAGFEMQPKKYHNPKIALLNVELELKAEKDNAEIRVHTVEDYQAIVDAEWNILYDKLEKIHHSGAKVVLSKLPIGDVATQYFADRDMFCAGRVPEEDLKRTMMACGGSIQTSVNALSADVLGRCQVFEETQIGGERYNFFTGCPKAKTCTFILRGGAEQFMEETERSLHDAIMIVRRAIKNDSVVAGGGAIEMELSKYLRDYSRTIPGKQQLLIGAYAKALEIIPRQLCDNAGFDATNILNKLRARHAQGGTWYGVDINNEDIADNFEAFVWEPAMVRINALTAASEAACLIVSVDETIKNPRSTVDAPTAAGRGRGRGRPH
UniProt P04040: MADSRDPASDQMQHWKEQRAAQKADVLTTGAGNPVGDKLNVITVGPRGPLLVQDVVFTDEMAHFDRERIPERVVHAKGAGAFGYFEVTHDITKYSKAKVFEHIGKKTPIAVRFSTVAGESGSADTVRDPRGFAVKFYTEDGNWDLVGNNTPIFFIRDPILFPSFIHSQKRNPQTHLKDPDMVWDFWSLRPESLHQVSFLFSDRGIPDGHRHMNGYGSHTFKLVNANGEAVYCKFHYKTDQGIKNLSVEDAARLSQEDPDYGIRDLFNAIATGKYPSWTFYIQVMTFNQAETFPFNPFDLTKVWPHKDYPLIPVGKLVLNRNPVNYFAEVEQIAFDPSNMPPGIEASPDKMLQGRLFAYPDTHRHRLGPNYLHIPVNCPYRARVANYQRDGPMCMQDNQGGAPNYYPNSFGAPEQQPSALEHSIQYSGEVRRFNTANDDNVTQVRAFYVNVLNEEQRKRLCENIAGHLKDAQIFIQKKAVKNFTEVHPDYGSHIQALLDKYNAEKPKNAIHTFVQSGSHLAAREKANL
UniProt Q96F63: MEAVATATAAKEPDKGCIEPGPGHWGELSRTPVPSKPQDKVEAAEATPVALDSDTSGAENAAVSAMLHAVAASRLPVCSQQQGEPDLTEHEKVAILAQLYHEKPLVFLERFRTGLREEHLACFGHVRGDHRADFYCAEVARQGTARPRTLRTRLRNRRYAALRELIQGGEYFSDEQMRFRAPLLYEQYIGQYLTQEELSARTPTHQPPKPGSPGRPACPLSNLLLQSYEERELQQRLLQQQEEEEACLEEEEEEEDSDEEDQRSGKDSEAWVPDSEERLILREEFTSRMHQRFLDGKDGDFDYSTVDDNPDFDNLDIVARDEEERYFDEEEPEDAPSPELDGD
UniProt Q9GZT6: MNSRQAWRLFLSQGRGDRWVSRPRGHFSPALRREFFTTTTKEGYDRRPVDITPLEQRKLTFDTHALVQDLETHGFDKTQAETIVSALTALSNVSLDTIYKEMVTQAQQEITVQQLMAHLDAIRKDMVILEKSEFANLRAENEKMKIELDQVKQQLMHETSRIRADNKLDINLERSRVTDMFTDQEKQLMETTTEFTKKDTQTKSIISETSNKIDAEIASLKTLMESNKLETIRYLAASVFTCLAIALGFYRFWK
UniProt Q6PK04: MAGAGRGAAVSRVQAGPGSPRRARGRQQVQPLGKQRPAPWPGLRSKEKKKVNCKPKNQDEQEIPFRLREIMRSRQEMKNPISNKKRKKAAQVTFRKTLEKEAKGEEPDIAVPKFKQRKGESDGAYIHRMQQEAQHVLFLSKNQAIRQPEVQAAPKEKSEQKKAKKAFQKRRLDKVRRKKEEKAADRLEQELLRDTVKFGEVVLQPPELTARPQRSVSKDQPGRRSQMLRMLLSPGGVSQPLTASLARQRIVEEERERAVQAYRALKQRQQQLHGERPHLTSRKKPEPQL
UniProt Q96CT7: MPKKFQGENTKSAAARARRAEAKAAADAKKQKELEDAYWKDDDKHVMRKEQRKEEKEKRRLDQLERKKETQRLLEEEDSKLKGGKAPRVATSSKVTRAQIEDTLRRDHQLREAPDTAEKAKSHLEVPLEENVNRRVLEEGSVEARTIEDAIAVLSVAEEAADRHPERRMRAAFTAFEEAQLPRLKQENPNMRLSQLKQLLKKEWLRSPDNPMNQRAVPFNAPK
UniProt Q9P031: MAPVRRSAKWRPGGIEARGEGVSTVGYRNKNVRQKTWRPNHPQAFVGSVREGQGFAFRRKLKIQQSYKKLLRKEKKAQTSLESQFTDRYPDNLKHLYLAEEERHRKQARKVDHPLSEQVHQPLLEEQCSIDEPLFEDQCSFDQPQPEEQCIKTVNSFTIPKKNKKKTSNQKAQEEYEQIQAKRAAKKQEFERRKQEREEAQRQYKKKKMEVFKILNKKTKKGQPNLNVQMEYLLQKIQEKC
UniProt P27701: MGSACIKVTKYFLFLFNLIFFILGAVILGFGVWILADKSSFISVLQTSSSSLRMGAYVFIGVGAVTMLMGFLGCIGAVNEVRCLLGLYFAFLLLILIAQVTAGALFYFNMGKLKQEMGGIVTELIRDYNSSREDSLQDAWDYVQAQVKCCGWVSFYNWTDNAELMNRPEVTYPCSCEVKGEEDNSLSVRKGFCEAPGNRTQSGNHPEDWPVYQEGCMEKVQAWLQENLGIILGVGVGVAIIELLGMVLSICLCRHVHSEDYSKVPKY
UniProt P51946: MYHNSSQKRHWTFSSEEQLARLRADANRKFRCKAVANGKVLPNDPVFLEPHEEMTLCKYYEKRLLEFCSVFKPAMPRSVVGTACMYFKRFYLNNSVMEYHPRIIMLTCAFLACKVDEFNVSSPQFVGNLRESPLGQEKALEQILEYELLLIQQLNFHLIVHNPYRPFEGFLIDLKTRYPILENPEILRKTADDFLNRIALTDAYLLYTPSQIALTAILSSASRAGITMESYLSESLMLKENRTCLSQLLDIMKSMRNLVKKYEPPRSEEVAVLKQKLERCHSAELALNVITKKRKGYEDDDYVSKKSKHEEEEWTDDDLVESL
UniProt P42574: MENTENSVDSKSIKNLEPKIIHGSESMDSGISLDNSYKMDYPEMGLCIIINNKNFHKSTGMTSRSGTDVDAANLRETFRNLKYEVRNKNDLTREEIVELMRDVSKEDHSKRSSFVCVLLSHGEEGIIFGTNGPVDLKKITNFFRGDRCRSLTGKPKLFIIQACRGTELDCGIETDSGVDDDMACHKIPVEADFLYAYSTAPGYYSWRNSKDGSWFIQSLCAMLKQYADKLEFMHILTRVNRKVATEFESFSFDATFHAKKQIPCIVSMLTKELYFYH
UniProt P20248, whole entry, looked up: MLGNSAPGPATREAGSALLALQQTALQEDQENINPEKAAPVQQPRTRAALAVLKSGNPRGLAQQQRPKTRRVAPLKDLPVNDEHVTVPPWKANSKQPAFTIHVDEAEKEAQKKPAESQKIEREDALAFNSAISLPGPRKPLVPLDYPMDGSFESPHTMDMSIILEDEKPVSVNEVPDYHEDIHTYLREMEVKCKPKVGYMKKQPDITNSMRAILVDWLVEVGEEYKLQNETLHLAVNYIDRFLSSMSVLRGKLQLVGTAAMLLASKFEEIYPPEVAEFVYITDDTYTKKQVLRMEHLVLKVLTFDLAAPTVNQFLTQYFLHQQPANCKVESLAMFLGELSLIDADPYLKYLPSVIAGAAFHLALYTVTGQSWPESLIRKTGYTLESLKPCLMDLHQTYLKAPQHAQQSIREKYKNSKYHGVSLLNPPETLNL
UniProt P49368: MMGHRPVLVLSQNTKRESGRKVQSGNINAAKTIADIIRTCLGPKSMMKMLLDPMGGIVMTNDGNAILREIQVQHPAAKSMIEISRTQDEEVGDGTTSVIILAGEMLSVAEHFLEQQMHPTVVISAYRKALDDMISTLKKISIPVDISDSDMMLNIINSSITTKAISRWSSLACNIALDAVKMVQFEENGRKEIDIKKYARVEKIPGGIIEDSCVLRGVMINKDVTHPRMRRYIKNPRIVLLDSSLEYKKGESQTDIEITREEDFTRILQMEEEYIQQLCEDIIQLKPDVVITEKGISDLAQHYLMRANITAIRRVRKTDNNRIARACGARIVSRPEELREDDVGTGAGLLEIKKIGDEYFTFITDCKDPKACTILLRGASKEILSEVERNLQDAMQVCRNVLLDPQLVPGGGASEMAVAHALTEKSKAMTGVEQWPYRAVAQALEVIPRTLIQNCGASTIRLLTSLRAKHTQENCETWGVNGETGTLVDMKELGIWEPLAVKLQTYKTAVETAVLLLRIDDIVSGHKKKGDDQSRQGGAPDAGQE
UniProt Q8TCZ2: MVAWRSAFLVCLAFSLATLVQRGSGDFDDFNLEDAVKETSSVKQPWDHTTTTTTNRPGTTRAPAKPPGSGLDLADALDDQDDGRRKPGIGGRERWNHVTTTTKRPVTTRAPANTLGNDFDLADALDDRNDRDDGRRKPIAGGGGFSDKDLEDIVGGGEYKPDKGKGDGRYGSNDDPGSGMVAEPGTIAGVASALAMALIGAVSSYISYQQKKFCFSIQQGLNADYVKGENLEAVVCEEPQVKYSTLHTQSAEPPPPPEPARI
UniProt Q96NT0: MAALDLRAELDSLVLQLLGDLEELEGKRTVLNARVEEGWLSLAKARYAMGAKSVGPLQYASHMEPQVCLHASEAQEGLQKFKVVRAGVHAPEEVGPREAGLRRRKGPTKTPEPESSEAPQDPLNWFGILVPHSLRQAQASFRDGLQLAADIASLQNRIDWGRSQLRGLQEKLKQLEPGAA
UniProt P19256, whole entry, looked up: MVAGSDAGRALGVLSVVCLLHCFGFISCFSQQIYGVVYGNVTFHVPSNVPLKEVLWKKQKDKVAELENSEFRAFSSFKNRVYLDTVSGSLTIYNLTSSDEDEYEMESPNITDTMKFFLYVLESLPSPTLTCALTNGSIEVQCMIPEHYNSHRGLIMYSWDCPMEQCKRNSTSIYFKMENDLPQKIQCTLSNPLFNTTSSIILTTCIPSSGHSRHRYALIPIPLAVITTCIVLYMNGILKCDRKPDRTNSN
UniProt Q16543: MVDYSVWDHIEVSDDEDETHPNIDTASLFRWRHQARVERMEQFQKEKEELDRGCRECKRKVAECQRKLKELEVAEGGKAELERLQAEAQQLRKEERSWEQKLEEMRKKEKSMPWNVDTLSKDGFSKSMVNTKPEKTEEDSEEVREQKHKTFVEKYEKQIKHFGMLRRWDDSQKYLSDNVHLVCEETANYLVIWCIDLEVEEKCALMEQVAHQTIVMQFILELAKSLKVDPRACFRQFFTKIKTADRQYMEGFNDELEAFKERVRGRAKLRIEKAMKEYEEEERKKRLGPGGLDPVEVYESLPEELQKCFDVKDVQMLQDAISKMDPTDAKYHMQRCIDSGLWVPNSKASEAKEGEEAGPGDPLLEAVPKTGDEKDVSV
UniProt P34810: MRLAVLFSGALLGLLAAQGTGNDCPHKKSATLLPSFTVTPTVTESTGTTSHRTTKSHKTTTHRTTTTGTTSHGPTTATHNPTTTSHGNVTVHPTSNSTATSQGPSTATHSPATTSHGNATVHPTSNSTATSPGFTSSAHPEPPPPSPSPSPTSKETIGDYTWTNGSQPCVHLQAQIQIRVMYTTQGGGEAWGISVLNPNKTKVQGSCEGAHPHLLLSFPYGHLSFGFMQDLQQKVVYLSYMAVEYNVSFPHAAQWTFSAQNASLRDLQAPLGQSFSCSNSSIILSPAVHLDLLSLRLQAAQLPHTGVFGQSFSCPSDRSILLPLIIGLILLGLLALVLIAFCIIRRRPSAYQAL
UniProt P55210: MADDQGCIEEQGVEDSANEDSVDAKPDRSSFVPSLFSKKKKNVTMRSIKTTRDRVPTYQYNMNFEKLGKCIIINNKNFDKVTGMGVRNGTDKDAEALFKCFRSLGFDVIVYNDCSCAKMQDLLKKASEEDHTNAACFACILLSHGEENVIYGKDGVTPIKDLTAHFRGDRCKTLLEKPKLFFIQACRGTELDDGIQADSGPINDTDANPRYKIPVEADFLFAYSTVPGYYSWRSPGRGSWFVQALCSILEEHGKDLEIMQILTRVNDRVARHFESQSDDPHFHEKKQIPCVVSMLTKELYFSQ
UniProt Q13185: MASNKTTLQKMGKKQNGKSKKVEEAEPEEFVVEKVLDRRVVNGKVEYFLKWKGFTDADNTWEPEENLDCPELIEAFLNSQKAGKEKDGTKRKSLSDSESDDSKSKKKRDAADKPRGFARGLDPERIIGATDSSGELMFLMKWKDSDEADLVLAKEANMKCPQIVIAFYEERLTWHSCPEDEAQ

**Q.** For CCDC25 (UniProt Q86WR0), which log2 fold change is on record?
**A.** The log2 fold change was inactive: -0.094.

**Q.** Which log2 fold change does the source give for CCDC32 isoform 2 (UniProt Q9BV29) here?
**A.** Its log2 fold change is inactive: -0.014.

**Q.** CCT7 (UniProt Q99832) was tested. Which log2 fold change did it give?
**A.** The log2 fold change was inactive: -0.006.

**Q.** CAT (UniProt P04040) was tested. Which log2 fold change did it give?
**A.** Its log2 fold change is inactive: 0.021.

**Q.** For CCDC97 (UniProt Q96F63), which log2 fold change is on record?
**A.** The log2 fold change was inactive: 0.045.

**Q.** How did the log2 fold change turn out when CCDC90B (UniProt Q9GZT6) was run?
**A.** The log2 fold change was inactive: -0.007.

**Q.** Which log2 fold change does the source give for CD3EAP isoform 2 (UniProt O15446) here?
**A.** Its log2 fold change is inactive: 0.025.

**Q.** With CCDC137 (UniProt Q6PK04) as the target, how does the log2 fold change read?
**A.** The log2 fold change was inactive: 0.206.

**Q.** How did the log2 fold change turn out when CCAR2 isoform 2 (UniProt Q8N163) was run?
**A.** Its log2 fold change is inactive: -0.057.

**Q.** With CD47 (UniProt Q08722) as the target, how does the log2 fold change read?
**A.** The log2 fold change was inactive: 0.012.

**Q.** With CD276 (UniProt Q5ZPR3) as the target, how does the log2 fold change read?
**A.** The log2 fold change was inactive: 0.122.

**Q.** CDC27 isoform 2 (UniProt P30260) was tested. Which log2 fold change did it give?
**A.** Its log2 fold change is inactive: 0.043.

**Q.** CC2D1B isoform 2 (UniProt Q5T0F9) was tested. Which log2 fold change did it give?
**A.** Its log2 fold change is inactive: -0.074.

**Q.** With CCDC124 (UniProt Q96CT7) as the target, how does the log2 fold change read?
**A.** The log2 fold change was inactive: 0.021.

**Q.** Which log2 fold change does the source give for CCDC59 (UniProt Q9P031) here?
**A.** The log2 fold change was inactive: 0.012.

**Q.** CBFA2T2 isoform 4 (UniProt O43439) was tested. Which log2 fold change did it give?
**A.** The log2 fold change was inactive: -0.063.

**Q.** Which log2 fold change does the source give for CD82 (UniProt P27701) here?
**A.** Its log2 fold change is inactive: 0.142.

**Q.** Which log2 fold change does the source give for CCNH (UniProt P51946) here?
**A.** Its log2 fold change is inactive: 0.02.

**Q.** For CCZ1 (UniProt P86791), which log2 fold change is on record?
**A.** The log2 fold change was inactive: 0.011.

**Q.** How did the log2 fold change turn out when CCDC134 (UniProt Q9H6E4) was run?
**A.** Its log2 fold change is inactive: 0.034.

**Q.** CBX5 (UniProt P45973) was tested. Which log2 fold change did it give?
**A.** The log2 fold change was inactive: -0.001.

**Q.** How did the log2 fold change turn out when CASP3 (UniProt P42574) was run?
**A.** The log2 fold change was inactive: 0.018.

**Q.** Which log2 fold change does the source give for CDC25A (UniProt P30304) here?
**A.** The log2 fold change was inactive: 0.041.

**Q.** Which log2 fold change does the source give for CD151 (UniProt P48509) here?
**A.** The log2 fold change was inactive: -0.126.

**Q.** Which log2 fold change does the source give for CCNA2 (UniProt P20248) here?
**A.** Its log2 fold change is inactive: 0.005.

**Q.** For CCDC82 (UniProt Q8N4S0), which log2 fold change is on record?
**A.** The log2 fold change was inactive: -0.018.

**Q.** CCNY (UniProt Q8ND76) was tested. Which log2 fold change did it give?
**A.** The log2 fold change was inactive: 0.

**Q.** Which log2 fold change does the source give for CCT3 (UniProt P49368) here?
**A.** The log2 fold change was inactive: 0.009.

**Q.** Which log2 fold change does the source give for CDC37 (UniProt K7EKQ2) here?
**A.** The log2 fold change was inactive: -0.03.

**Q.** CD99L2 isoform 5 (UniProt Q8TCZ2) was tested. Which log2 fold change did it give?
**A.** Its log2 fold change is inactive: 0.07.

**Q.** For CCDC115 (UniProt Q96NT0), which log2 fold change is on record?
**A.** Its log2 fold change is inactive: 0.003.

**Q.** With CD58 (UniProt P19256) as the target, how does the log2 fold change read?
**A.** Its log2 fold change is inactive: 0.006.

**Q.** Which log2 fold change does the source give for CCDC47 (UniProt Q96A33) here?
**A.** The log2 fold change was inactive: -0.027.

**Q.** Which log2 fold change does the source give for CDC37 (UniProt Q16543) here?
**A.** The log2 fold change was inactive: -0.029.

**Q.** For CD68 (UniProt P34810), which log2 fold change is on record?
**A.** The log2 fold change was inactive: 0.021.

**Q.** CASP7 isoform 3 (UniProt P55210) was tested. Which log2 fold change did it give?
**A.** The log2 fold change was inactive: 0.12.

**Q.** Which log2 fold change does the source give for CBX3 (UniProt Q13185) here?
**A.** Its log2 fold change is inactive: -0.008.

**Q.** For CBX3 (UniProt B8ZZ43), which log2 fold change is on record?
**A.** The log2 fold change was inactive: 0.168.
